PubChem BioAssay AID1224827 – NIAID | 2016
The whole screen tested about 3,800 reagents; below is a random part of them. About 2,200 of all reagents (57%) count as active. 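Active means a strong reporter change in either direction; calls are per siRNA, not per gene; qiagen siRNAs gave weaker effects.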 The numbers tell different reagents against one gene apart. Further read-outs or replicates are left out here.

Assay: 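Identify regulators of the macrophage TNF-alpha response to bacterial LPS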 (follow-up of hits)
Cells: RAW264.7 G9 mouse macrophage reporter clone
Knock-down reagent: single siRNA against mouse genes, 100 nM siRNA
Time to read-out: siRNA for 2 days, then LPS about 16 h
Challenge: bacterial lipopolysaccharide (LPS), 10 ng/ml, cells fixed after overnight (about 16 h) stimulation
Detection: 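TNF promoter reporter red fluorescence in nuclei, background subtracted, normalised per plate and to non-targeting control siRNA, as z-scores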
Reading the numbers: TNF reporter z-score, mean: higher = stronger Tnf promoter reporter signal; gene median z, three same-vendor siRNAs: higher = stronger Tnf reporter signal for the gene
Hit rule: 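Active siRNA: replicate-mean z-score of 2 or more, or -2 or less; no calls for control wells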

Trhr (thyrotropin releasing hormone receptor) #1 → TNF reporter z-score, mean: -0.219; gene median z, three same-vendor siRNAs: -5.18; Outcome: inactive
Trhr (thyrotropin releasing hormone receptor) #2 → TNF reporter z-score, mean: -5.56; gene median z, three same-vendor siRNAs: -5.18; Outcome: active
Trhr (thyrotropin releasing hormone receptor) #3 → TNF reporter z-score, mean: -5.94; gene median z, three same-vendor siRNAs: -5.18; Outcome: active
Trhr (thyrotropin releasing hormone receptor) #4 → TNF reporter z-score, mean: 1.83; gene median z, three same-vendor siRNAs: -1.06; Outcome: inactive
Trhr (thyrotropin releasing hormone receptor) #5 → TNF reporter z-score, mean: -1.06; gene median z, three same-vendor siRNAs: -1.06; Outcome: inactive
Trhr (thyrotropin releasing hormone receptor) #6 → TNF reporter z-score, mean: -2.25; gene median z, three same-vendor siRNAs: -1.06; Outcome: active
Fam221b (family with sequence similarity 221, member B) #1 → TNF reporter z-score, mean: -3.67; gene median z, three same-vendor siRNAs: -4.05; Outcome: active
Fam221b (family with sequence similarity 221, member B) #2 → TNF reporter z-score, mean: -3.84; gene median z, three same-vendor siRNAs: -4.05; Outcome: active
Fam221b (family with sequence similarity 221, member B) #3 → TNF reporter z-score, mean: -4.46; gene median z, three same-vendor siRNAs: -4.05; Outcome: active
Fam221b (family with sequence similarity 221, member B) #4 → TNF reporter z-score, mean: 2.53; gene median z, three same-vendor siRNAs: 0.592; Outcome: active
Fam221b (family with sequence similarity 221, member B) #5 → TNF reporter z-score, mean: 2.15; gene median z, three same-vendor siRNAs: 0.592; Outcome: active
Fam221b (family with sequence similarity 221, member B) #6 → TNF reporter z-score, mean: -1.93; gene median z, three same-vendor siRNAs: 0.592; Outcome: inactive

Ordered by “TNF reporter z-score, mean” (low to high): 3 of the entries above.
Fam221b (family with sequence similarity 221, member B) #3 → TNF reporter z-score, mean: -4.46; gene median z, three same-vendor siRNAs: -4.05; Outcome: active
Fam221b (family with sequence similarity 221, member B) #5 → TNF reporter z-score, mean: 2.15; gene median z, three same-vendor siRNAs: 0.592; Outcome: active
Fam221b (family with sequence similarity 221, member B) #4 → TNF reporter z-score, mean: 2.53; gene median z, three same-vendor siRNAs: 0.592; Outcome: active

The results go on.
Gm10283 (predicted gene 10283) #1 → TNF reporter z-score, mean: -0.371; gene median z, three same-vendor siRNAs: -3.85; Outcome: inactive
Gm10283 (predicted gene 10283) #2 → TNF reporter z-score, mean: -3.85; gene median z, three same-vendor siRNAs: -3.85; Outcome: active
Gm10283 (predicted gene 10283) #3 → TNF reporter z-score, mean: -5.93; gene median z, three same-vendor siRNAs: -3.85; Outcome: active
Gm10283 (predicted gene 10283) #4 → TNF reporter z-score, mean: 2.67; gene median z, three same-vendor siRNAs: 1.28; Outcome: active
Gm10283 (predicted gene 10283) #5 → TNF reporter z-score, mean: 2.87; gene median z, three same-vendor siRNAs: 1.28; Outcome: active
Gm10283 (predicted gene 10283) #6 → TNF reporter z-score, mean: 0.351; gene median z, three same-vendor siRNAs: 1.28; Outcome: inactive
Ces2e (carboxylesterase 2E) #1 → TNF reporter z-score, mean: 3.27; gene median z, three same-vendor siRNAs: -3.49; Outcome: active
Ces2e (carboxylesterase 2E) #2 → TNF reporter z-score, mean: -3.49; gene median z, three same-vendor siRNAs: -3.49; Outcome: active
Ces2e (carboxylesterase 2E) #3 → TNF reporter z-score, mean: -4.31; gene median z, three same-vendor siRNAs: -3.49; Outcome: active
Ces2e (carboxylesterase 2E) #4 → TNF reporter z-score, mean: 0.951; gene median z, three same-vendor siRNAs: 0.0212; Outcome: inactive
Ces2e (carboxylesterase 2E) #5 → TNF reporter z-score, mean: 0.621; gene median z, three same-vendor siRNAs: 0.0212; Outcome: inactive
Ces2e (carboxylesterase 2E) #6 → TNF reporter z-score, mean: -0.815; gene median z, three same-vendor siRNAs: 0.0212; Outcome: inactive
